Assay [1] concerns the target T1, HISTONE … 6 (HDA6), yeast two-hybrid fusion (Arabidopsis thaliana) (UniProt Q9FML2).
T1 sequence: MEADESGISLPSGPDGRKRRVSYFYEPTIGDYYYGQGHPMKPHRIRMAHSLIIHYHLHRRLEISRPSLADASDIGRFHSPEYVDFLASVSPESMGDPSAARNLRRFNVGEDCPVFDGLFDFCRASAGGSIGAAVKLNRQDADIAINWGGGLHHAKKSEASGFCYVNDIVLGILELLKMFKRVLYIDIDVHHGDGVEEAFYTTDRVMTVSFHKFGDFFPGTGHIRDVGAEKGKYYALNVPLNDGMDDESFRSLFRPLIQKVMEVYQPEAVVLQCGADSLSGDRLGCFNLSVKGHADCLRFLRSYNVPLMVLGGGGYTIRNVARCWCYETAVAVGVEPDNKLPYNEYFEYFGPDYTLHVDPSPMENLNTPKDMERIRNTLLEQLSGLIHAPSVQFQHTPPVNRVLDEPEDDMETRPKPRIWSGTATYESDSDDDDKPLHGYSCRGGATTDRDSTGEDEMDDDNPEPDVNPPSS
Put plainly: two-hybrid; Matchmaker GAL4 system 3, yeast AH109; growth on TDO (SD lacking Trp, Leu, His) / TDO with X-alpha-gal, 30 °C; both orientations of AD and BD.

Assay [2] concerns the target T2, HDA6-GFP (pro35S:HDA6-GFP), in transgenic Arabidopsis plants (Arabidopsis thaliana) (UniProt Q9FML2).
T2 sequence: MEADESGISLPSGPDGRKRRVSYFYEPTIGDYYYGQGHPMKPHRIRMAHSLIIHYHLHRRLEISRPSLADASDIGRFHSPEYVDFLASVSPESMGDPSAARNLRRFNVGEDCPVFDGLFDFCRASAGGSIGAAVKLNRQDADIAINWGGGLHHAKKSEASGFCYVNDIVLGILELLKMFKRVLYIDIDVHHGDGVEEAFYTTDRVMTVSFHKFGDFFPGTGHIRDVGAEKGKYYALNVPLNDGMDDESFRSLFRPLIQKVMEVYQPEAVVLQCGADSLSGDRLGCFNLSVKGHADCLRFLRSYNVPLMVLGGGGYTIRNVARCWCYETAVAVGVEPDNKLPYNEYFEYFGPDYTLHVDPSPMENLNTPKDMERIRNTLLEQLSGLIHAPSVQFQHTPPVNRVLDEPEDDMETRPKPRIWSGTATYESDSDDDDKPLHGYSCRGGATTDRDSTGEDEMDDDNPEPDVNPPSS
The assay can be described thus: co-IP; transgenic Arabidopsis plants coexpressing 35S:HDA6-GFP and 35S:SIZ1-FLAG; SIZ1-FLAG immunoprecipitated by HDA6-GFP.

The target in assay [3] is T3, HDA6 fused to the N-terminal part of YFP (YN) (Arabidopsis thaliana) (UniProt Q9FML2).
T3 sequence: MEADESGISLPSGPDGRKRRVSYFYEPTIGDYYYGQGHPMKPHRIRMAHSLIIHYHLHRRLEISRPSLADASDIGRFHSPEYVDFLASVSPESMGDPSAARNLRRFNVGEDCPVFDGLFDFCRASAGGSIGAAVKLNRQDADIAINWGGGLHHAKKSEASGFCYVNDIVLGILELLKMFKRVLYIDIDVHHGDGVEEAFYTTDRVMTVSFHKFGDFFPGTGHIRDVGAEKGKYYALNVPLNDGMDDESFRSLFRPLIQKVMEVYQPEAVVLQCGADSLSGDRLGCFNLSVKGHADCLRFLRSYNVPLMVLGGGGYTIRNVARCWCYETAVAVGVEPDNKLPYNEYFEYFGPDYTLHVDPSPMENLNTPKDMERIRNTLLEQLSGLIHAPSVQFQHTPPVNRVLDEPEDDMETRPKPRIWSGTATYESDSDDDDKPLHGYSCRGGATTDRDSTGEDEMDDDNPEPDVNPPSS
Put plainly: split reporter; BiFC with YN and YC halves of YFP in Arabidopsis protoplasts (PEG transfection); confocal imaging, mCherry with a nuclear localization signal as nuclear marker.

The target of assay [4] is T4, GFP-HDA6 (pEAQ-GFP-HDA6), expressed in tobacco leaves (Arabidopsis thaliana) (UniProt Q9FML2).
T4 sequence: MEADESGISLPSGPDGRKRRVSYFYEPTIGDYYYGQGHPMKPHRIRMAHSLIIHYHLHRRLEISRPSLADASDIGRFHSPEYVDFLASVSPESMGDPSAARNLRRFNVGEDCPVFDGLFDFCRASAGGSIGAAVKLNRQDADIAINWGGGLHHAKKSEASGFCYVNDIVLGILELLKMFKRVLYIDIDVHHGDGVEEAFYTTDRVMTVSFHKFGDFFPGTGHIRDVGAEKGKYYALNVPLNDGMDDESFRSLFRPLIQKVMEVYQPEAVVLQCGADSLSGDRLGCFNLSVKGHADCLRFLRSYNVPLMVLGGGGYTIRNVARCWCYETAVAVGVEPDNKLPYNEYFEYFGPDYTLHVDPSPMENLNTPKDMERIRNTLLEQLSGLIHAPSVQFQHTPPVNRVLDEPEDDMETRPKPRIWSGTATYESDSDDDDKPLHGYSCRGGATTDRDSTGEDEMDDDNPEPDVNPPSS
Put plainly: co-IP; co-expression in tobacco leaves by Agrobacterium infiltration (36 h); extract in 50 mM Tris-HCl pH 7.4, 150 mM NaCl, 2 mM MgCl2, 1 mM DTT, 20% glycerol, 1% NP-40; GFP-Trap-A beads 4 °C 4 h; anti-FLAG blot.

The target of assay [5] is T5, HDA6-GFP (pEAQ-HDA6-GFP), expressed in tobacco leaves (Arabidopsis thaliana) (UniProt Q9FML2).
T5 sequence: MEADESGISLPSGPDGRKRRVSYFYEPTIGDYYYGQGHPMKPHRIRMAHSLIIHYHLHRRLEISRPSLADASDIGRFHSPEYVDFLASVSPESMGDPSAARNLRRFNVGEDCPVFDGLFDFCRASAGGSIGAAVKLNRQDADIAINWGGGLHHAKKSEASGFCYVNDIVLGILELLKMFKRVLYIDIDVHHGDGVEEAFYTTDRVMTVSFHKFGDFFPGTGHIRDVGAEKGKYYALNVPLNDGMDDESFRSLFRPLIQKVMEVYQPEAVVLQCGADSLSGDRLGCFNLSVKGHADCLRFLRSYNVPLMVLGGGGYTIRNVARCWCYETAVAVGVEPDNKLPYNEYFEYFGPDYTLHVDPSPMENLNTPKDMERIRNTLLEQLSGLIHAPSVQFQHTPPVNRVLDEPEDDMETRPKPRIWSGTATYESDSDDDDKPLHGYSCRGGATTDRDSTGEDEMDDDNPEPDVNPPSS
Described as above.

The text below walks through data of publication PMC8616286.

Results are given in words; binding and its absence hold for the method and conditions named. For some assays here: Binding seen in cells or lysates may run through a third protein. Some entries that bind do so weakly or less than the wild type. Tags and fused reporters may be left off the sequences shown.

B1: SAP AND MIZ1 DOMAIN-CONTAINING LIGASE1 (SIZ1), yeast two-hybrid fusion (enzyme, UniProt Q680Q4 1-884)
chain: MDLEANCKEKLSYFRIKELKDVLTQLGLSKQGKKQELVDRILTLLSDEQAARLLSKKNTVAKEAVAKLVDDTYRKMQVSGASDLASKGQVSSDTSNLKVKGEPEDPFQPEIKVRCVCGNSLETDSMIQCEDPRCHVWQHVGCVILPDKPMDGNPPLPESFYCEICRLTRADPFWVTVAHPLSPVRLTATTIPNDGASTMQSVERTFQITRADKDLLAKPEYDVQAWCMLLNDKVLFRMQWPQYADLQVNGVPVRAINRPGGQLLGVNGRDDGPIITSCIRDGVNRISLSGGDVRIFCFGVRLVKRRTLQQVLNLIPEEGKGETFEDALARVRRCIGGGGGDDNADSDSDIEVVADFFGVNLRCPMSGSRIKVAGRFLPCVHMGCFDLDVFVELNQRSRKWQCPICLKNYSVEHVIVDPYFNRITSKMKHCDEEVTEIEVKPDGSWRVKFKRESERRELGELSQWHAPDGSLCPSAVDIKRKMEMLPVKQEGYSDGPAPLKLGIRKNRNGIWEVSKPNTNGLSSSNRQEKVGYQEKNIIPMSSSATGSGRDGDDASVNQDAIGTFDFVANGMELDSISMNVDSGYNFPDRNQSGEGGNNEVIVLSDSDDENDLVITPGPAYSGCQTDGGLTFPLNPPGIINSYNEDPHSIAGGSSGLGLFNDDDEFDTPLWSFPSETPEAPGFQLFRSDADVSGGLVGLHHHSPLNCSPEINGGYTMAPETSMASVPVVPGSTGRSEANDGLVDNPLAFGRDDPSLQIFLPTKPDASAQSGFKNQADMSNGLRSEDWISLRLGDSASGNHGDPATTNGINSSHQMSTREGSMDTTTETASLLLGMNDSRQDKAKKQRSDNPFSFPRQKRSNNEQDHQTRHRSLNKICIILCAGKN
B1: the binding result in assay [1] is “binds”.

B2: SIZ1-FLAG (pro35S:SIZ1-FLAG), in transgenic Arabidopsis plants (enzyme, UniProt Q680Q4 1-884)
chain: MDLEANCKEKLSYFRIKELKDVLTQLGLSKQGKKQELVDRILTLLSDEQAARLLSKKNTVAKEAVAKLVDDTYRKMQVSGASDLASKGQVSSDTSNLKVKGEPEDPFQPEIKVRCVCGNSLETDSMIQCEDPRCHVWQHVGCVILPDKPMDGNPPLPESFYCEICRLTRADPFWVTVAHPLSPVRLTATTIPNDGASTMQSVERTFQITRADKDLLAKPEYDVQAWCMLLNDKVLFRMQWPQYADLQVNGVPVRAINRPGGQLLGVNGRDDGPIITSCIRDGVNRISLSGGDVRIFCFGVRLVKRRTLQQVLNLIPEEGKGETFEDALARVRRCIGGGGGDDNADSDSDIEVVADFFGVNLRCPMSGSRIKVAGRFLPCVHMGCFDLDVFVELNQRSRKWQCPICLKNYSVEHVIVDPYFNRITSKMKHCDEEVTEIEVKPDGSWRVKFKRESERRELGELSQWHAPDGSLCPSAVDIKRKMEMLPVKQEGYSDGPAPLKLGIRKNRNGIWEVSKPNTNGLSSSNRQEKVGYQEKNIIPMSSSATGSGRDGDDASVNQDAIGTFDFVANGMELDSISMNVDSGYNFPDRNQSGEGGNNEVIVLSDSDDENDLVITPGPAYSGCQTDGGLTFPLNPPGIINSYNEDPHSIAGGSSGLGLFNDDDEFDTPLWSFPSETPEAPGFQLFRSDADVSGGLVGLHHHSPLNCSPEINGGYTMAPETSMASVPVVPGSTGRSEANDGLVDNPLAFGRDDPSLQIFLPTKPDASAQSGFKNQADMSNGLRSEDWISLRLGDSASGNHGDPATTNGINSSHQMSTREGSMDTTTETASLLLGMNDSRQDKAKKQRSDNPFSFPRQKRSNNEQDHQTRHRSLNKICIILCAGKN
Take B2: the binding entry in assay [2] was “binds”.

B3: SIZ1 fused to the C-terminal part of YFP (YC) (enzyme, UniProt Q680Q4 1-884)
chain: MDLEANCKEKLSYFRIKELKDVLTQLGLSKQGKKQELVDRILTLLSDEQAARLLSKKNTVAKEAVAKLVDDTYRKMQVSGASDLASKGQVSSDTSNLKVKGEPEDPFQPEIKVRCVCGNSLETDSMIQCEDPRCHVWQHVGCVILPDKPMDGNPPLPESFYCEICRLTRADPFWVTVAHPLSPVRLTATTIPNDGASTMQSVERTFQITRADKDLLAKPEYDVQAWCMLLNDKVLFRMQWPQYADLQVNGVPVRAINRPGGQLLGVNGRDDGPIITSCIRDGVNRISLSGGDVRIFCFGVRLVKRRTLQQVLNLIPEEGKGETFEDALARVRRCIGGGGGDDNADSDSDIEVVADFFGVNLRCPMSGSRIKVAGRFLPCVHMGCFDLDVFVELNQRSRKWQCPICLKNYSVEHVIVDPYFNRITSKMKHCDEEVTEIEVKPDGSWRVKFKRESERRELGELSQWHAPDGSLCPSAVDIKRKMEMLPVKQEGYSDGPAPLKLGIRKNRNGIWEVSKPNTNGLSSSNRQEKVGYQEKNIIPMSSSATGSGRDGDDASVNQDAIGTFDFVANGMELDSISMNVDSGYNFPDRNQSGEGGNNEVIVLSDSDDENDLVITPGPAYSGCQTDGGLTFPLNPPGIINSYNEDPHSIAGGSSGLGLFNDDDEFDTPLWSFPSETPEAPGFQLFRSDADVSGGLVGLHHHSPLNCSPEINGGYTMAPETSMASVPVVPGSTGRSEANDGLVDNPLAFGRDDPSLQIFLPTKPDASAQSGFKNQADMSNGLRSEDWISLRLGDSASGNHGDPATTNGINSSHQMSTREGSMDTTTETASLLLGMNDSRQDKAKKQRSDNPFSFPRQKRSNNEQDHQTRHRSLNKICIILCAGKN
As for B3, the binding entry in assay [3] is listed as “binds”.

B4: SIZ1-FLAG (pHB-SIZ1-FLAG), expressed in tobacco leaves (enzyme, UniProt Q680Q4 1-884)
chain: MDLEANCKEKLSYFRIKELKDVLTQLGLSKQGKKQELVDRILTLLSDEQAARLLSKKNTVAKEAVAKLVDDTYRKMQVSGASDLASKGQVSSDTSNLKVKGEPEDPFQPEIKVRCVCGNSLETDSMIQCEDPRCHVWQHVGCVILPDKPMDGNPPLPESFYCEICRLTRADPFWVTVAHPLSPVRLTATTIPNDGASTMQSVERTFQITRADKDLLAKPEYDVQAWCMLLNDKVLFRMQWPQYADLQVNGVPVRAINRPGGQLLGVNGRDDGPIITSCIRDGVNRISLSGGDVRIFCFGVRLVKRRTLQQVLNLIPEEGKGETFEDALARVRRCIGGGGGDDNADSDSDIEVVADFFGVNLRCPMSGSRIKVAGRFLPCVHMGCFDLDVFVELNQRSRKWQCPICLKNYSVEHVIVDPYFNRITSKMKHCDEEVTEIEVKPDGSWRVKFKRESERRELGELSQWHAPDGSLCPSAVDIKRKMEMLPVKQEGYSDGPAPLKLGIRKNRNGIWEVSKPNTNGLSSSNRQEKVGYQEKNIIPMSSSATGSGRDGDDASVNQDAIGTFDFVANGMELDSISMNVDSGYNFPDRNQSGEGGNNEVIVLSDSDDENDLVITPGPAYSGCQTDGGLTFPLNPPGIINSYNEDPHSIAGGSSGLGLFNDDDEFDTPLWSFPSETPEAPGFQLFRSDADVSGGLVGLHHHSPLNCSPEINGGYTMAPETSMASVPVVPGSTGRSEANDGLVDNPLAFGRDDPSLQIFLPTKPDASAQSGFKNQADMSNGLRSEDWISLRLGDSASGNHGDPATTNGINSSHQMSTREGSMDTTTETASLLLGMNDSRQDKAKKQRSDNPFSFPRQKRSNNEQDHQTRHRSLNKICIILCAGKN
On to B4, for which the binding entry in assay [4] and in assay [5] was “binds” throughout.
